PubChem BioAssay AID602196 | INSERM, 2012

Assay: 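Genes whose knock-down alters cisplatin killing of lung cancer cells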
System: human A549 lung cancer cells
Reagent: siRNA pair against human genes
Timing: 48 h transfection before cisplatin; time from cisplatin to read-out not stated
Conditions: cisplatin at a dose killing half of control-siRNA cells; exact dose and duration not given
Read-out: 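Cisplatin cell death as a shift from the 50% death seen with control siRNA; siRNAs toxic or growth-blocking alone scored 0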
Direction: two-siRNA summed score (-2 to +2): higher = both siRNAs protect from cisplatin killing; -2 means both sensitise
Rule for the call: 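Each siRNA scores 0 if harmful alone by LDH or WST-1, otherwise +1 if it reduces and -1 if it increases cisplatin killing; a gene is active when both siRNAs agree (sum +2 or -2)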
Meaning of the calls: active = both siRNAs shift cisplatin killing the same way; inactive = no consistent shift, or siRNA harmful alone
The deposit covers about 23,000 reagents; shown is a random part of them. 455 of them (2%) count as active. 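Active includes both protection and sensitisation; some change values fall well beyond the stated -50 to +50 range.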 Reagents against one gene are numbered here. Further read-outs or replicates are left out here. Not given: the amount of reagent.

two-siRNA summed score (-2 to +2), by target gene and reagent
HERC5: #1 0 inactive
EIF3LP3: #1 0 inactive
SLC22A23: #1 1 inactive
LOC401081: #1 0 inactive
SMC1B: #1 -1 inactive
PEX11B: #1 0 inactive
HERC3: #1 0 inactive
NOXRED1: #1 0 inactive
LOC440720: #1 0 inactive
IKZF5: #1 0 inactive
ACAA1: #1 1 inactive
RBM20: #1 1 inactive
WDR74: #1 0 inactive
GLCE: #1 0 inactive
OR5AP2: #1 -1 inactive
PGAM1: #1 0 inactive
LOC164045: #1 -1 inactive
ACLY: #1 1 inactive
ODF4: #1 0 inactive
ANKRD28: #1 0 inactive
LOC441819: #1 0 inactive
OGG1: #1 -1 inactive
MAP10: #1 0 inactive
UBE2Q2: #1 0 inactive
AR: #1 -2 active
CLTCL1: #1 -1 inactive
LOC440908: #1 0 inactive
DHX32: #1 0 inactive
ZNF154: #1 0 inactive
MARK1: #1 0 inactive
PSMB10: #1 0 inactive
CAPS: #1 0 inactive
STRIP1: #1 0 inactive
KIAA1915: #1 0 inactive
TRPC1: #1 0 inactive
MSRA: #1 1 inactive
GPRC6A: #1 -1 inactive
DUSP2: #1 0 inactive
POLR2E: #1 -1 inactive
ASXL1: #1 0 inactive
LOC440341: #1 0 inactive
OR10A5: #1 0 inactive
LOC388489: #1 0 inactive
LOC400541: #1 0 inactive
SCAMP5: #1 0 inactive
DRC5: #1 0 inactive
IKZF1: #1 -1 inactive; #2 1 inactive
MAGI2: #1 -1 inactive
NR2F6: #1 0 inactive
USP25: #1 0 inactive
SLC5A9: #1 1 inactive
LOC283994: #1 1 inactive
LOC440623: #1 1 inactive
ZBED8L: #1 -1 inactive
KLKB1: #1 0 inactive
GET3: #1 1 inactive

Hits (from the list above):
two-siRNA summed score (-2 to +2), by target gene and reagent
AR: #1 -2 active
